Assay results reported in patent US11066446B2, “Cyclic peptide, affinity chromatography support, labeled antibody, antibody drug conjugate, and pharmaceutical preparation” (FUJIFILM Corporation, priority 2016, dated 2021).
Some results were stated once for a whole list of compounds, not compound by compound.

System: human immunoglobulin G (IgG) antibodies
Test: Relative binding activity to human IgG antibodies by surface plasmon resonance on immobilized sensor chip
Details: SPR (Biacore 3000, CM5 chip), 3,000 nM human IgG for 10 minutes at 25° C.; relative to the cyclic peptide of Comparative Example 1 regarded as 1
Procedure: A commercially available CM5 (carboxymethyl dextran introduction-type, manufactured by GE Healthcare) sensor chip was set in Biacore 3000 (Biacore is a registered trademark) as a surface plasmon resonance device manufactured by GE Healthcare, a 4-(2-hydroxyethyl)-1-piperazineethanesulfonic acid (HEPES) buffer solution (20 mM HEPES-HCl, 150 mM NaCl, pH 7.4) for surface plasmon resonance (SPR) was stabilized at a flow rate of 10 μL/min, and 70 μL of an aqueous mixed solution of 0.2 M 1-(3-Dimethylaminopropyl)-3-ethylcarbodiimide (EDC) and […] of N-Hydroxysuccinimide (NHS) were injected thereinto. […]
At 25° C., 3,000 nM of human immunoglobulin G (IgG) antibodies were added for 10 minutes to the immobilized sensor chip A prepared in (2) described above. Then, the antibody binding amount in the flow channel in which the cyclic peptide was immobilized immediately after the addition and in the flow channel in which the cyclic peptide was not immobilized was measured. From the difference in the antibody binding amount between the flow channel in which the cyclic peptide was immobilized and the flow channel in which the cyclic peptide was not immobilized and the amount of the immobilized cyclic peptide, the activity of the cyclic peptide was calculated. […]

Asp-[Hpg]-Ala-Tyr-His-Leu-Gly-Glu-Leu-Val-Trp-[Nva(N3)]-Thr-Lys-Lys [Cyclic peptide 15, [Hpg] and [Nva(N3)] cross-linked through a triazole bond]
Relative binding activity: C or a higher grade
